The target of test [1] is T1, DAZL (overexpressed in 293FT cells) (human) (UniProt Q92904).
T1 sequence: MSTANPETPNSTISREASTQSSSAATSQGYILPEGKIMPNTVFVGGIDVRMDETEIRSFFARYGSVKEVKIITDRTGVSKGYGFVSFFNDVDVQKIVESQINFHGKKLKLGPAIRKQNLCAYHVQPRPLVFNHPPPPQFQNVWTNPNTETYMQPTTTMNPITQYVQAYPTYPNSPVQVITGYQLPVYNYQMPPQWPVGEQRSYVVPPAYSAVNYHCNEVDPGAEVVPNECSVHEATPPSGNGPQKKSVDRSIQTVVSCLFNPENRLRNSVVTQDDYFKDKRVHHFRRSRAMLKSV
Kind of test: co-IP; whole-cell lysates of 293FT cells transfected with oeDAZL plasmid; extract treated with 80 ug/ml RNase A and 200 U/ml RNase T1 for 15 min at 37°C before IP; IP with DICER antibodies or DAZL antibodies, Dynabeads Protein G, 4°C; washed with PBS and 0.02% Tween-20; western blotting; normal rabbit IgG as negative control. On the technique in general: In western blotting, separated proteins are transferred to a membrane and probed.

Protein sequences, listed by entry. Tags and fused reporters are not part of them.
UniProt Q9UPY3: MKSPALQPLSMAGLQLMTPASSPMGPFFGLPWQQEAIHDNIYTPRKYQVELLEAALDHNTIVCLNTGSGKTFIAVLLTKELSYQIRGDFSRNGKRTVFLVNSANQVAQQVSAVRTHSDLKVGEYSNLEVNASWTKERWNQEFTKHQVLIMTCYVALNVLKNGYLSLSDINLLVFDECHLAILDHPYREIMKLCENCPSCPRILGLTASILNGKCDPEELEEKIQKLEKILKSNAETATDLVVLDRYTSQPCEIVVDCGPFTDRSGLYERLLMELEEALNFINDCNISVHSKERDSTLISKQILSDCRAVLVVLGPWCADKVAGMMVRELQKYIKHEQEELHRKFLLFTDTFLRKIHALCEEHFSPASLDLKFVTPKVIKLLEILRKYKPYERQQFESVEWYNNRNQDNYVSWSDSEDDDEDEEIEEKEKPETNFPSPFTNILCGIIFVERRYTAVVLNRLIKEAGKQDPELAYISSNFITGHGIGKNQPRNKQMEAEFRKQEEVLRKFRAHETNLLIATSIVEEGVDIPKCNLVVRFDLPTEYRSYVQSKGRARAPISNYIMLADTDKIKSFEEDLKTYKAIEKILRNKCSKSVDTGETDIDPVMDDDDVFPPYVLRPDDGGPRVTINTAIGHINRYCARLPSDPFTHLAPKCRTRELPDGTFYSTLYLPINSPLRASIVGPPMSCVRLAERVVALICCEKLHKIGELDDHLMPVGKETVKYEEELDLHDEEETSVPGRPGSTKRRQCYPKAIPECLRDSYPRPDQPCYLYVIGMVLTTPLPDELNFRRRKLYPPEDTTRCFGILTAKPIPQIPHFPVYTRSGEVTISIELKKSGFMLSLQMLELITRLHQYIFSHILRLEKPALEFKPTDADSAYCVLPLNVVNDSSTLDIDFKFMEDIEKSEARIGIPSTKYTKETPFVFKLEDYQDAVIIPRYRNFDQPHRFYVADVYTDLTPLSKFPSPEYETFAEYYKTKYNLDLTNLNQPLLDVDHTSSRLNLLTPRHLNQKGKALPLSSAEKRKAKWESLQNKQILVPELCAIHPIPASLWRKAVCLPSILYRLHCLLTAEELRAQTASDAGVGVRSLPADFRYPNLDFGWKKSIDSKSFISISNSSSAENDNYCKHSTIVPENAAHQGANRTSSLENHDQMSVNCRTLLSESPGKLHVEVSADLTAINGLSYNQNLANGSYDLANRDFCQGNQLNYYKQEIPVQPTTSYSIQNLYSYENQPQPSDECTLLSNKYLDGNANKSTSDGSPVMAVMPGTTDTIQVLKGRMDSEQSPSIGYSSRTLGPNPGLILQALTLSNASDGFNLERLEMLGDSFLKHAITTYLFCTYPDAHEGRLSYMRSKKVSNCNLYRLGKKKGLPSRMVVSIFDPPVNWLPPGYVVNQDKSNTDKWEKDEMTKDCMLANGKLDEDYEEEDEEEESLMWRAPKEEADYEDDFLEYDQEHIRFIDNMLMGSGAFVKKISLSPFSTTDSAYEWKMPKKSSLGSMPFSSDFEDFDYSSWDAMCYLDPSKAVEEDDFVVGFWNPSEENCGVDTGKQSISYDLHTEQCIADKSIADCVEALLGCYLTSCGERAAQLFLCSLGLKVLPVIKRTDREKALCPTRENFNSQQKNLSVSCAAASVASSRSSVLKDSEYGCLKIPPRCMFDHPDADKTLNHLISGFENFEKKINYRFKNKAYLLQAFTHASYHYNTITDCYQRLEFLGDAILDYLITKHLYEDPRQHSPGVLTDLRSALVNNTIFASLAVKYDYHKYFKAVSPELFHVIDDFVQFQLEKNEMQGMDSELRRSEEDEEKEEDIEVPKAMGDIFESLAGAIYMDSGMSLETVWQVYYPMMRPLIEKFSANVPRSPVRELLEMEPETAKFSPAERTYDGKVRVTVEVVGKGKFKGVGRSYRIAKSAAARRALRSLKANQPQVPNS

The target in test [2] is DICER (endogenous in 293FT cells) (human (endogenous in 293FT)) (UniProt Q9UPY3). The description is as above.

These are yes or no findings as the source states them, for the method shown. Binding seen in cells or lysates may run through a third protein. Some binding calls cover weakened binding; strength is not graded here.

Take “DICER (endogenous in 293FT cells) (from UniProt Q9UPY3 1-1922) (enzyme)”: in test [1], the binding entry was “binds”.

B1: DAZL (overexpressed in 293FT cells) (protein, UniProt Q92904 1-295)
chain: T1 sequence
In the case of B1, in test [2], the binding entry is “binds”.

The values are drawn from paper PMC9638919, “DAZL regulates proliferation of human primordial germ cells by direct binding to precursor miRNAs and enhances DICER processing activity”.
